In this assay the target is T1, Aromatase (Homo sapiens, UniProt P11511).
T1 sequence (P11511 whole entry): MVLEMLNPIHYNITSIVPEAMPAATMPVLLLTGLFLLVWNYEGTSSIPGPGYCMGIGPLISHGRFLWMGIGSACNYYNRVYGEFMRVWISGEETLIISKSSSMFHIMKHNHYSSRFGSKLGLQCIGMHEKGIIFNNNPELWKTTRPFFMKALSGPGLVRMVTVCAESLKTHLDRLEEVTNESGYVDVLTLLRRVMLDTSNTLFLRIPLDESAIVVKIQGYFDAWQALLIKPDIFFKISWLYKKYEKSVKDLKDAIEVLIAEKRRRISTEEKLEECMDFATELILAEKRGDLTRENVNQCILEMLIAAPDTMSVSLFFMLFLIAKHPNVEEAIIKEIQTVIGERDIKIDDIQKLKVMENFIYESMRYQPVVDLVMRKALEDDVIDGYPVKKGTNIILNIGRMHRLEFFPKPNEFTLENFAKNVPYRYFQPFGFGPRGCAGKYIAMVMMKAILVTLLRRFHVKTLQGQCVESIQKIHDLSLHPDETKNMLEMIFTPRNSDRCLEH

pKi: −log10 of the molar value.

Molecule `CC(C)(C#N)c1cc(Cn2cncn2)cc(C(C)(C)C#N)c1` [ANASTROZOLE] gave a pKi of 9.89.

The record behind these values is ChEMBL document CHEMBL1955720 (Bioorg Med Chem, 2012).
